Source: paper PMC3313957
Results are given in words; binding and its absence hold for the method and conditions named. In cells and extracts the contact can be indirect. Some entries that bind do so weakly or less than the wild type.

Chains of the proteins cited; added tags and fusions are not shown.
UniProt B0BNA7: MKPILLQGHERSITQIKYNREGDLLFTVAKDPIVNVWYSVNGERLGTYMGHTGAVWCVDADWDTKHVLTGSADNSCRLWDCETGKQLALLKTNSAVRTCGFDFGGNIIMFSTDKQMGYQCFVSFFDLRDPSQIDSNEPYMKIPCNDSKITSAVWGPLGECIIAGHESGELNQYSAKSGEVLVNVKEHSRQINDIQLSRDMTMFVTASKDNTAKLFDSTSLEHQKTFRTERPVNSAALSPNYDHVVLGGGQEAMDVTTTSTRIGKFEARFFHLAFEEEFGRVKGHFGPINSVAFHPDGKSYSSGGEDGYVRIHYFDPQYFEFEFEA

Experiments:
[1] = target: T1, GTP cyclohydrolase I (rat (endogenous in rat liver, brain, heart and kidney)) (UniProt P22288); test: co-IP; rat heart homogenate on GCH1 antibody cross-linked to agarose, overnight at 4°C; IgG agarose as control; eluates immunoblotted
T1 sequence: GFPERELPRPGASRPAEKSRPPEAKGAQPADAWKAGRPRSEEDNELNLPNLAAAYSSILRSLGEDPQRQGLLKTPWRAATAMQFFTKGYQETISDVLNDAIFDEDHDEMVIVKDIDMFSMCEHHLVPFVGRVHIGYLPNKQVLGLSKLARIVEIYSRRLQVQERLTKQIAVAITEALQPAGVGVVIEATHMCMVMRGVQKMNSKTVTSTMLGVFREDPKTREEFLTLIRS

[2] = target: T1, GTP cyclohydrolase I (rat (endogenous in rat liver, brain, heart and kidney)); test: co-IP; rat brain homogenate on GCH1 antibody cross-linked to agarose, overnight at 4°C; IgG agarose as control; eluates immunoblotted
[3] = target: T1, GTP cyclohydrolase I (rat (endogenous in rat liver, brain, heart and kidney)); test: co-IP; rat kidney homogenate on GCH1 antibody cross-linked to agarose, overnight at 4°C; IgG agarose as control; eluates immunoblotted
[4] = target: T1, GTP cyclohydrolase I (rat (endogenous in rat liver, brain, heart and kidney)); test: co-IP; rat liver homogenate on GCH1 antibody cross-linked to agarose, overnight at 4°C; IgG agarose as control; eluates immunoblotted

Measured: binding

Eukaryotic translation initiation factor 3 subunit I (from UniProt B0BNA7 1-325)
binds: all assays above
